# PubChem BioAssay AID1259425 – University of Nebraska Medical Center | 2018
# Assay: 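Compare each knockdown with KSR1 silencing using changes in marker transcripts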 (primary screen)
# Cell system: HCT116 human colon cancer cells
# Knock-down reagent: siRNA pool against human genes, 50 nM siRNA
# Measurement: 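mRNA of six signature genes measured together by branched-DNA assay after 50 nM siRNA pool, blank removed, divided by geometric mean of two housekeeping genes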
# Reading the numbers: BNIP3L mRNA: higher = more BNIP3L transcript after knockdown; NDRG1 mRNA: higher = more NDRG1 transcript after knockdown; BNIP3 mRNA: higher = more BNIP3 transcript after knockdown; ALDOC mRNA: higher = more ALDOC transcript after knockdown; ACSL5 mRNA: higher = more ACSL5 transcript after knockdown
# This is an unselected part of about 14,000 deposited reagents. The record does not give: the time to read-out.
Gene,"BNIP3L mRNA, set 1","NDRG1 mRNA, set 1","BNIP3 mRNA, set 1","ALDOC mRNA, set 1","ACSL5 mRNA, set 1"
CELA2A (chymotrypsin like elastase 2A),0.0998,0.118,0.394,0.0331,0.15
CARM1 (coactivator associated arginine methyltransferase 1),0.23,0.386,0.414,0.0669,0.221
GJA4 (gap junction protein alpha 4),0.0971,0.664,0.467,0.00887,0.204
IFT38 (intraflagellar transport 38),0.126,0.271,0.334,0.0141,0.167
MRPL43 (mitochondrial ribosomal protein L43),0.214,0.186,0.162,0.0342,0.0955
MGAT2,0.0582,0.45,0.294,0.0146,0.177
NECAP2 (NECAP endocytosis associated 2),0.0961,0.13,0.285,0.0542,0.171
TMEM9B (TMEM9 domain family member B),0.0957,0.67,0.399,0.0558,0.554
BCAP29 (B cell receptor associated protein 29),0.107,0.279,0.263,0.0313,0.171
ETNK2 (ethanolamine kinase 2),0.0892,0.0731,0.495,0.0153,0.236
GNG13 (G protein subunit gamma 13),0.108,0.143,0.276,0.014,0.301
OCIAD1 (OCIA domain containing 1),0.19,0.504,0.295,0.0475,0.317
PAPPA2 (pappalysin 2),0.111,0.0995,0.291,0.0219,0.163
SLC67A2,0.109,0.256,0.271,0.0268,0.176
"LSM10 (LSM10, U7 small nuclear RNA associated)",0.0737,0.282,0.262,0.0381,0.184
PYCR3 (pyrroline-5-carboxylate reductase 3),0.0857,0.131,0.303,0.015,0.275
TACR3 (tachykinin receptor 3),0.238,0.191,0.382,0.0385,0.215
WNT2 (Wnt family member 2),0.0657,0.199,0.341,0.0121,0.177
CBR1 (carbonyl reductase 1),0.0459,0.162,0.299,0.037,0.144
SAA1 (serum amyloid A1),0.0811,0.227,0.211,0.0226,0.13
CDX2 (caudal type homeobox 2),0.073,0.0917,0.292,0.0183,0.185
LRRC37A (leucine rich repeat containing 37A),0.083,0.109,0.238,0.00816,0.0363
NUSAP1 (nucleolar and spindle associated protein 1),0.143,0.411,0.333,0.0429,0.189
USP32 (ubiquitin specific peptidase 32),0.216,0.261,0.328,0.0531,0.228
MORN1 (MORN repeat containing 1),0.175,0.141,0.306,0.0464,0.228
KEAP1 (kelch like ECH associated protein 1),0.0635,0.293,0.497,0.0834,0.126
TULP3 (TUB like protein 3),0.05,0.0927,0.321,0.0182,0.149
PRDX3 (peroxiredoxin 3),0.11,0.218,0.273,0.0185,0.179
PRPF8 (pre-mRNA processing factor 8),0.0671,0.163,0.268,0.0246,0.183
RPL9 (ribosomal protein L9),0.262,0.176,0.382,0.0167,0.271
OPRPN (opiorphin prepropeptide),0.0734,0.218,0.24,0.0215,0.235
SPPL2B (signal peptide peptidase like 2B),0.341,0.155,0.412,0.0302,0.249
RPS9 (ribosomal protein S9),0.0601,0.1,0.216,0.00638,0.0722
PSMA6 (proteasome 20S subunit alpha 6),0.612,1.17,0.508,0.0938,0.548
ZNF556 (zinc finger protein 556),0.182,0.236,0.432,0.0468,0.204
FSHB (follicle stimulating hormone subunit beta),0.115,0.233,0.304,0.0714,0.113
DAAM2 (dishevelled associated activator of morphogenesis 2),0.0654,0.0864,0.24,0.012,0.147
PTEN (phosphatase and tensin homolog),0.0606,0.173,0.341,0.0469,0.177
CHRNA2 (cholinergic receptor nicotinic alpha 2 subunit),0.102,0.157,0.207,0.015,0.0824
PRKACB (protein kinase cAMP-activated catalytic subunit beta),0.0918,0.147,0.328,0.0203,0.119
APOBEC3D (apolipoprotein B mRNA editing enzyme catalytic subunit 3D),0.12,0.18,0.277,0.0163,0.24
KRT86 (keratin 86),0.0598,0.146,0.238,0.0116,0.147
DRG1 (developmentally regulated GTP binding protein 1),0.0958,0.0579,0.312,0.0201,0.112
FBXO28 (F-box protein 28),0.159,0.0874,0.325,0.049,0.316
GPAT3 (glycerol-3-phosphate acyltransferase 3),0.117,0.122,0.22,0.0292,0.158
DMRTC2 (DMRT like family C2),0.0798,0.317,0.279,0.0102,0.281
ACVRL1 (activin A receptor like type 1),0.204,0.319,0.367,0.0239,0.435
WDTC1 (WD and tetratricopeptide repeats 1),0.145,0.223,0.318,0.0252,0.164
RPL26L1 (ribosomal protein L26 like 1),0.115,0.122,0.533,0.0401,0.102
UTP25 (UTP25 small subunit processome component),0.138,0.269,0.39,0.0412,0.268
ACACA (acetyl-CoA carboxylase alpha),0.153,0.301,0.2,0.0869,0.222
INPP4A (inositol polyphosphate-4-phosphatase type I A),0.144,0.678,0.225,0.0453,0.246
SH3BGRL2 (SH3 domain binding glutamate rich protein like 2),0.144,0.293,0.228,0.0676,0.256
BNIP1 (BCL2 interacting protein 1),0.114,0.236,0.233,0.0458,0.173
"POLR1HASP (POLR1H antisense, pseudogene)",0.0701,0.135,0.269,0.0165,0.0961
EVC2 (EvC ciliary complex subunit 2),0.135,0.18,0.252,0.00637,0.208
RNF43 (ring finger protein 43),0.196,0.395,0.263,0.0326,0.22
ELOC (elongin C),0.224,0.245,1.53,0.126,0.133
SOAT2 (sterol O-acyltransferase 2),0.11,0.203,0.227,0.0132,0.212
PDGFRB (platelet derived growth factor receptor beta),0.0406,0.108,0.234,0.00559,0.293
LTA4H (leukotriene A4 hydrolase),0.109,0.0994,0.282,0.019,0.122
NEFM (neurofilament medium chain),0.116,0.234,0.231,0.0294,0.127
HSFY2 (heat shock transcription factor Y-linked 2),0.0848,0.209,0.208,0.0239,0.0832

7 entries from above, limited to “BNIP3L mRNA, set 1”.
LRRC37A (leucine rich repeat containing 37A) = 0.083
NUSAP1 (nucleolar and spindle associated protein 1) = 0.143
USP32 (ubiquitin specific peptidase 32) = 0.216
MORN1 (MORN repeat containing 1) = 0.175
KEAP1 (kelch like ECH associated protein 1) = 0.0635
TULP3 (TUB like protein 3) = 0.05
PRDX3 (peroxiredoxin 3) = 0.11
